The text below walks through data of publication PMC4420598.

Chains of the proteins cited; added tags and fusions are not shown.
UniProt P84077: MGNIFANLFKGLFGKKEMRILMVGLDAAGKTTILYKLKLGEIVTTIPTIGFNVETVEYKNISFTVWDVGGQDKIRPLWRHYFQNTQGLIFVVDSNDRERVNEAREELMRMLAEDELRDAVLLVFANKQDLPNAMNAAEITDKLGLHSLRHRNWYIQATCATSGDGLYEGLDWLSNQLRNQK

The target in this assay is T1, GST-GGA1-GAT (UniProt Q9UJY5).
T1 sequence: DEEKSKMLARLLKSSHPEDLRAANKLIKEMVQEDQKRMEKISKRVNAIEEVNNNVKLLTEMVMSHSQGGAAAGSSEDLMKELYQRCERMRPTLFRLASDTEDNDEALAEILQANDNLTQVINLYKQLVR
Nature of the assay: pull-down; GST-GGA1-GAT immobilised on glutathione sepharose beads, incubated with BON cell extracts (RIPA buffer) for 2 hrs at 4°C; bound Arf1 detected by western blotting; cells serum starved 12 hrs, then untreated or treated with DMSO, Brefeldin A, IGF-1, BMS-536924, LY-294,002, MK-2206, Rapamycin or PD98059 for 4 hrs; only the target purified. In general terms: Immunoblotting shows a protein as a band on a membrane.

No constants are given. Whether binding was seen depends on the method and setting. In cells and extracts the contact can be indirect. Some entries that bind do so weakly or less than the wild type. Where a sequence is shown, tags or fusion partners need not be part of it.

With “Arf1 (active, GTP-bound) (from UniProt P84077 1-181)”, the binding result is “binds”.
